For this experiment, the target named is T1, interleukin-4 receptor (IL-4 receptor α), rat (rat (endogenous in RBL2H3)) (UniProt Q63257).
T1 sequence: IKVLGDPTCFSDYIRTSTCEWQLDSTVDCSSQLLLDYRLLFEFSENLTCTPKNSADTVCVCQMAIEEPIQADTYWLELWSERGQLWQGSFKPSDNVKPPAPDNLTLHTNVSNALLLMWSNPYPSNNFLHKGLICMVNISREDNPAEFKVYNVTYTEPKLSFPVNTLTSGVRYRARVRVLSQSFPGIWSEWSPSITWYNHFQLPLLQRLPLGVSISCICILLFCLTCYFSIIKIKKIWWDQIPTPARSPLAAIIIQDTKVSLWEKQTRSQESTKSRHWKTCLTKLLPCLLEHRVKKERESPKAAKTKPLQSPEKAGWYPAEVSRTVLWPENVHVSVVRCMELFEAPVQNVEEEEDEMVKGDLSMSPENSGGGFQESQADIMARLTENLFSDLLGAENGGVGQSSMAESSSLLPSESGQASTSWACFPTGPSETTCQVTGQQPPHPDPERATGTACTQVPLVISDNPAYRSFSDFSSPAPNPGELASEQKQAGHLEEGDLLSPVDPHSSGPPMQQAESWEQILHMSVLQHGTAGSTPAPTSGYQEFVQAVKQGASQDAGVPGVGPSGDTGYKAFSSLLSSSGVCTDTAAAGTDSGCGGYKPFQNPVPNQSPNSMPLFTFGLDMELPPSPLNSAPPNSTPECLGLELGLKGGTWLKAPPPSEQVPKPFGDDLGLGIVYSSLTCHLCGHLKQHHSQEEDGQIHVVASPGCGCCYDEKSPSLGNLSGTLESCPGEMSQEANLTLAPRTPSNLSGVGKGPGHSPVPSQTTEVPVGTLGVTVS
The experiment in a line: co-IP; lysates of DNP-specific IgE-sensitized RBL2H3 cells, stimulated with DNP-HSA, without or with Roc-A (1 μM, 2 h) or chemical 1536801 (5 μM, 2 h); lysis buffer 50 mM Tris-HCl pH 6.8, 150 mM NaCl, 1% NP-40, 50 mM dithiothreitol; immunoprecipitation and immunoblot; isotype-matched IgG as control; which protein was precipitated is not told.

This is an account of results in article PMC11858170.

Results are given in words; binding and its absence hold for the method and conditions named. Binding seen in cells or lysates may run through a third protein. A result given as binding can be weak or reduced; the word gives no strength.

With Janus kinase 1 (JAK1), rat (enzyme), the binding entry is reported as “binds”.
